In all, about 59,000 compounds went through this assay and about 6,500 (11%) were called active. The inconclusive results got no clear call from the source; some entries with a clear call stand among them for comparison. Cut-off read from the data, not from the text of the source: active = max dye-equivalent concentration above about 10 nM; inconclusive = mostly about 1.1 nM to 9.6 nM; inactive = weaker than that.
Experiment: qHTS Assay for Spectroscopic Profiling in A350 Spectral Region
Details: Compound autofluorescence, 340/450 nm, Alexa 350 dye-equivalents; hits give high values

SMILES	max dye-equivalent concentration
Cc1c(NC(=O)C(C)Oc2ncnc3ccccc23)c(=O)n(-c2ccccc2)n1C (stereo not drawn)	inconclusive: 1.6 nM
CCOC(=O)CCc1c(C)c(C#N)c2nc3ccccc3n2c1-n1ccnc1	active: 16 nM
COc1ccccc1OCCSc1ncnc2nc[nH]c12	inconclusive: 5.2 nM
CCOC(=O)C1=C(C)NC(C)=C(C(=O)OCC)C1	inconclusive: 7.5 nM
CC1(C)CC(=O)N(CC(=O)O)c2ccccc2S1	active: 43 nM
Nc1ccc2oc(-c3ccccc3Cl)nc2c1	inactive
CCCc1nc2oc3c(NCc4ccccn4)ncnc3c2c2c1COC(C)(C)C2	inactive
Cc1cccc(OCC(O)CN2C(C)(C)CC(O)CC2(C)C)c1C (stereo not drawn)	inconclusive: 2.8 nM
COc1cccc(-c2cc(C(F)(F)F)nc(N3CCOCC3)n2)c1	inconclusive: 4.8 nM
CCC(C)NC(=O)c1c(N)n(/N=C/c2cccnc2)c2nc3ccccc3nc12 (stereo not drawn)	inconclusive: 9.1 nM
COC(=O)c1ccccc1NC(=O)CSc1ccccn1	inconclusive: 2.8 nM
Cc1cc(C)n(C(=O)c2ccc(S(=O)(=O)N3CCCC3)cc2)n1	inactive
COc1ccc(CC(NC(C)=O)C(=O)NC2CCN(S(=O)(=O)c3ccccc3)CC2)cc1OC (stereo not drawn)	inconclusive: 1.6 nM
O=C(O)c1ccccc1CN1CCC[C@@H](C(=O)O)C1	inactive
N#CC12C(N)=NC3(OCCO3)C1(C#N)C1=C(CCC1)NC2c1ccccc1 (stereo not drawn)	active: 100 nM
Nc1c2c(nc3ccn(Cc4ccccc4)c(=O)c13)CCC2	inconclusive: 3.5 nM
Cc1nc(COC(=O)c2c(C)nn(-c3ccccc3)c2C)cs1	inconclusive: 2.7 nM
COCCn1c(SCC(=O)N2CCCC2)nnc1-c1ccoc1C	inactive
COc1ccccc1N1CCN(C[C@@H](O)COc2cccc3ccccc23)CC1	inconclusive: 1.5 nM
CCOC(=O)N1CCN(C(=O)Nc2ccc(Cl)cc2Cl)CC1	inactive

Exported in markdown: 17 of the compounds above.

| SMILES | max dye-equivalent concentration |
| --- | --- |
| Cc1c(NC(=O)C(C)Oc2ncnc3ccccc23)c(=O)n(-c2ccccc2)n1C (stereo not drawn) | inconclusive: 1.6 nM |
| CCOC(=O)CCc1c(C)c(C#N)c2nc3ccccc3n2c1-n1ccnc1 | active: 16 nM |
| CC1(C)CC(=O)N(CC(=O)O)c2ccccc2S1 | active: 43 nM |
| Nc1ccc2oc(-c3ccccc3Cl)nc2c1 | inactive |
| CCCc1nc2oc3c(NCc4ccccn4)ncnc3c2c2c1COC(C)(C)C2 | inactive |
| Cc1cccc(OCC(O)CN2C(C)(C)CC(O)CC2(C)C)c1C (stereo not drawn) | inconclusive: 2.8 nM |
| COc1cccc(-c2cc(C(F)(F)F)nc(N3CCOCC3)n2)c1 | inconclusive: 4.8 nM |
| CCC(C)NC(=O)c1c(N)n(/N=C/c2cccnc2)c2nc3ccccc3nc12 (stereo not drawn) | inconclusive: 9.1 nM |
| COC(=O)c1ccccc1NC(=O)CSc1ccccn1 | inconclusive: 2.8 nM |
| Cc1cc(C)n(C(=O)c2ccc(S(=O)(=O)N3CCCC3)cc2)n1 | inactive |
| COc1ccc(CC(NC(C)=O)C(=O)NC2CCN(S(=O)(=O)c3ccccc3)CC2)cc1OC (stereo not drawn) | inconclusive: 1.6 nM |
| N#CC12C(N)=NC3(OCCO3)C1(C#N)C1=C(CCC1)NC2c1ccccc1 (stereo not drawn) | active: 100 nM |
| Nc1c2c(nc3ccn(Cc4ccccc4)c(=O)c13)CCC2 | inconclusive: 3.5 nM |
| Cc1nc(COC(=O)c2c(C)nn(-c3ccccc3)c2C)cs1 | inconclusive: 2.7 nM |
| COCCn1c(SCC(=O)N2CCCC2)nnc1-c1ccoc1C | inactive |
| COc1ccccc1N1CCN(C[C@@H](O)COc2cccc3ccccc23)CC1 | inconclusive: 1.5 nM |
| CCOC(=O)N1CCN(C(=O)Nc2ccc(Cl)cc2Cl)CC1 | inactive |

(more compounds)

SMILES	max dye-equivalent concentration
CCN(CC)CCNC(=O)Cc1nn(CC)c(=O)c2ccccc12	inconclusive: 5.6 nM
CCn1c(=NC(=O)CSCC(=O)Nc2nccs2)sc2ccccc21	inconclusive: 1.9 nM
Cc1cc(C)cc(NCC(=O)Nc2c(C)cccc2C)c1	inconclusive: 1.2 nM
Cc1ccn2c(CCc3nnc4cc(C)ccn34)nnc2c1	inactive
CCCCCOc1ccc(C2C(C(C)=O)=C(C)Nc3ncnn32)cc1OC (stereo not drawn)	inactive
CC(c1nnc(Sc2nnnn2-c2ccccc2)n1-c1ccc(F)cc1)N(C)C (stereo not drawn)	inconclusive: 1.9 nM
CCc1ccccc1NC(=O)c1ccoc1C	inconclusive: 4.8 nM
COCCn1c(SCC(=O)N(C(C)C)C(C)C)nnc1-c1cc2ccccc2cc1O	active: 10 nM
O=C(Nc1ccccc1-c1ccccc1)c1cnccn1	inactive
Cc1ccc(C)c2[nH]c(=O)c(CN(CCN3CCCC3)C(=O)Nc3ccc(F)cc3)cc12	inconclusive: 1.9 nM
Cc1cccn2c(=O)c3cc(C#N)c(=NC(=O)c4ccncc4)n(CCCOC(C)C)c3nc12	active: 3700 nM
COC(=O)c1sccc1NC(=O)c1ccncc1	inactive
CS(=O)(=O)NCc1nnc(SCC(=O)NC2CCCCC2)n1-c1ccc(F)cc1	inconclusive: 5.8 nM
Cc1csc2nc(CSc3nc4ccccc4o3)c(Br)n12	active: 11 nM
CS(=O)(=O)NCCOc1ccc(S(=O)(=O)N2CCCc3ccccc32)cc1	inconclusive: 1.7 nM
CO/N=C(\C(=O)N[C@@H]1C(=O)N2C(C(=O)O)=C(COC(C)=O)CS[C@@H]12)c1csc(N)n1	inactive
CC(C)N=C(NC#N)SCC(=O)NC(C)(C)C	inconclusive: 1.1 nM
CCOC(=O)c1sc(C)c(C(N)=O)c1NC1=NCCCCC1	inconclusive: 2.9 nM
O=C(N/C(=N\O)c1ccccc1)Nc1ccc(Cl)cc1	inactive
CCS(=O)(=O)N1CCC(C(=O)NCc2ccccc2OC)CC1	inconclusive: 1.3 nM

SMILES	max dye-equivalent concentration
Cn1cc(Br)cc2nc(C(F)(F)F)nc1-2	inactive
O=C(c1c[nH]c2ccc(S(=O)(=O)N3CCOCC3)cc2c1=O)N1CCN(c2ccccn2)CC1	inconclusive: 5.4 nM
O=C(Nc1nc(-c2ccccn2)cs1)c1ccc(S(=O)(=O)N2CCCCC2)cc1	inconclusive: 7.8 nM
N#CC1=C(N)C(C#N)(C#N)C2(CCC3(CC2)OCCO3)C2CC3(CC=C12)OCCO3 (stereo not drawn)	inconclusive: 7.2 nM
O=C(CSc1nnnn1-c1ccc(Cl)cc1)NC(=O)Nc1ccc2c(c1)OCCO2	inconclusive: 1.1 nM
COc1cccc(/C=N/n2c(C)nc3ccccc3c2=O)c1O	inconclusive: 1.4 nM
O=C1CC(c2ccco2)Cc2nc(Nc3ccc(F)cc3)ncc21 (stereo not drawn)	inconclusive: 2.2 nM
COC(=O)c1c(NC(=O)CC2NCCNC2=O)sc2c1CCCC2 (stereo not drawn)	inconclusive: 1.5 nM
CCCNC(=O)CN(C)C(=O)c1n[nH]c2ccccc12	inconclusive: 2.5 nM
C/C(Cl)=C/Cn1c(SC(C)C)nc2c1c(=O)[nH]c(=O)n2C	inactive
O=C(CNC(=O)c1cccs1)NCCN1CCN(c2ccccc2F)CC1	inconclusive: 2.3 nM
CNC(=O)c1cc2cccc(OC)c2oc1=O	active: 13 nM
Cc1cccn2c(=O)c3cc(C(=O)N4c5ccccc5CC4C)n(C)c3nc12 (stereo not drawn)	inconclusive: 9.7 nM
O=C(CCNS(=O)(=O)c1ccc(Br)cc1)NCc1ccc2c(c1)OCO2	inconclusive: 1.7 nM
Cc1cc(C(=O)CCC(=O)N2CCN(S(=O)(=O)c3cccs3)CC2)c(C)s1	inconclusive: 3.7 nM
Cc1onc(-c2ccccc2Cl)c1C(N)=O	active: 16 nM
CC(C)(C)c1csc(NC(=O)c2ccc(Cl)s2)n1	inconclusive: 2.1 nM
O=C(Nc1ccccc1N1CCCC1)c1ccc2c(c1)OCO2	inconclusive: 1.4 nM
